# In PubChem BioAssay AID624291 (National Center for Advancing Translational Sciences (NCATS), 2012):
# About 220 (0.063%) of roughly 350,000 compounds were called active. The shares of active, inactive and inconclusive entries below differ from those in the screen. The call rests on the fitted dose curve; in most records, active means well fitted activation curve with a large enough effect; inconclusive means small, poorly fitted or top-dose-only effect; inactive means no such curve, though single readings can be large or run the other way. Where the call is inconclusive, the potency comes from a doubtful curve fit.
# Test: qHTS for Activators of Integrin-Mediated Alleviation for Muscular Dystrophy; further: nearly all actives have a fitted effect of over 60% in size;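 on activation: 100% = response of the positive control SU9516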
# Conditions: alpha7betagal myoblasts, beta-gal FDG fluorescence, 48 h; activation: at 38.3 µM (top of the series)
# In short: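 alpha7betagal+/- myoblasts (passage 13, 250/well) treated 48 h at 37C with compounds at 1:260 dilution of DMSO stock. Lysed, then beta-galactosidase activity read as FDG fluorescence (ex 480/em 540) after 30 min, with pre-read for autofluorescence.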
# Potency means the concentration at half of the fitted maximal effect.
SMILES,Potency,activation
CC1CCN(CC(=O)c2cccc(C(F)(F)F)c2)CC1,"inconclusive: 2.24 µM [activator, partial curve, poor fit]",
Cc1cc(/C=C2\C(=O)NC(=O)N(c3ccc(Cl)cc3)C2=O)c(C)n1C,"inconclusive: 5.01 µM [activator, single point]",
CC(C)c1ccc(N2C(=O)CC(=O)NC2=O)cc1,"inconclusive: 2.82 µM [activator, single point]",
CC1CCSP(=O)(Oc2ccccc2)O1 (stereo not drawn),"inconclusive: 5.01 µM [activator, single point]",
COc1ccc(C(=O)C2CCCN(Cc3ccc(F)cc3F)C2)cc1F (stereo not drawn),,inactive: -2.46%
CCC1CN2CCc3cc(OC)c(OC)cc3C2CC1CC1NCCc2c1[nH]c1ccc(O)cc21 (stereo not drawn),,inconclusive: -54.6% [activator]
COc1ccc(-c2nc3ccccc3c(=O)n2-c2ccc(OC)cc2)cc1,,inactive: -51.6%
Cn1c(N)c(C(=O)COC(=O)Cc2ccccc2)c(=O)n(C)c1=O,"inconclusive: 28.2 µM [activator, single point]",
Cc1ccc(S(=O)(=O)Oc2ccccc2C=C2C(=O)NC(=O)NC2=O)cc1,,inactive: -36.4%
Cc1ccccc1CN1CCN(C(=O)Cc2ccccc2)CC1,"inconclusive: 22.4 µM [activator, single point]",
O=C1NS(=O)c2cc([N+](=O)[O-])cc([N+](=O)[O-])c21 (stereo not drawn),"inconclusive: 12.6 µM [activator, single point]",
COC(=O)C1=C(c2ccc(C(C)=O)cc2)C[C@@H]2CC[C@H]1N2C(=O)NCc1ccc(F)cc1,,inactive: -0.363%
O=c1c2ccccc2[nH]c(=S)n1-c1ccc2c(c1)OCO2,,inactive: 4.03%
CCOc1ccc(N2C(=O)NC(=O)/C(=C/c3cnc(SC)nc3)C2=O)cc1,"inconclusive: 11.2 µM [activator, single point]",
COc1ccc(NC(=O)N2CCC3(CC2)OCCO3)c(OC)c1,"inconclusive: 2.51 µM [activator, single point]",
CC1=NN(c2ccccc2)C(=O)/C1=C/c1c(O)[nH]c(=O)[nH]c1=O,,inactive: 10.9%
O=C1NC(=S)NC(=O)C1=Cc1c(Cl)cccc1Cl,"inconclusive: 3.55 µM [activator, partial curve, poor fit]",

# Rewritten tab-delimited: 2 of the compounds above
SMILES	Potency	activation
COc1ccc(C(=O)C2CCCN(Cc3ccc(F)cc3F)C2)cc1F (stereo not drawn)		inactive: -2.46%
CCC1CN2CCc3cc(OC)c(OC)cc3C2CC1CC1NCCc2c1[nH]c1ccc(O)cc21 (stereo not drawn)		inconclusive: -54.6% [activator]

# Carrying on.

SMILES,Potency,activation
Cc1cc(C=C2C(=O)NC(=S)NC2=O)c(C)n1-c1ccc2c(c1)OCO2,,inactive: -58.2%
C[N+](C)(N)CCOC(=O)C(O)(c1ccccc1)C1CCCCC1 (stereo not drawn),,inactive: 3.84%
CN1CCc2nc(SC(C(=O)O)c3ccccc3)c(C#N)c(-c3cccs3)c2C1 (stereo not drawn),"inconclusive: 1 µM [activator, single point]",
COc1ccc(S(=O)(=O)NC(CC(=O)N2CCC3(CC2)OCCO3)c2ccco2)cc1 (stereo not drawn),,inactive: 19.9%
CC(Cc1ccccc1Sc1ccc(O)cc1)N(C)C (stereo not drawn),,inactive: -25.4%
COC(=O)C1=C(c2cc3ccccc3s2)C[C@@H]2CC[C@H]1N2C(=O)N1CCC(O)CC1,,inactive: 21.5%
CC(O)(CS(=O)(=O)c1ccccc1)C(=O)Nc1ccc(C(F)(F)F)cc1 (stereo not drawn),,inactive: 4.11% [at 7.66 µM]
COC(=O)c1cncn1C(C)c1ccccc1 (stereo not drawn),"inconclusive: 1.41 µM [activator, partial curve, poor fit]",
CCC1CN1P(=O)(N1CCCC1)N1CC1CC (stereo not drawn),,inactive: 0%
Cc1cccc(NC(=O)Cn2cc(C(=O)C3CC3)c3ccccc32)c1C,,inactive: -59.1%
Clc1ccc(Cl)c(Oc2ccc(Oc3nc(Cl)ccc3Cl)cc2)n1,"inconclusive: 20 µM [activator, single point]",
O=C1NC(=S)NC(=O)C1Cc1ccccc1,"inconclusive: 0.447 µM [activator, full curve, poor fit]",
Cc1cc(Cc2c(O)[nH]c(=S)[nH]c2=O)ccc1OC(C)C,"inconclusive: 7.94 µM [activator, single point]",
CCn1cc(CN2CCCC(C(=O)c3sccc3C)C2)cn1 (stereo not drawn),"inconclusive: 5.01 µM [activator, single point]",
Cc1nn(C(C)(C)C)c(C)c1/C=N/OC(=O)Nc1ccc(Cl)cc1,"inconclusive: 3.98 µM [activator, single point]",
Cc1ccc(N2C(=O)NC(=O)/C(=C\c3cnc(-c4ccccc4)nc3)C2=O)cc1,"inconclusive: 11.2 µM [activator, partial curve, poor fit]",
